A: 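Assay of Toxoplasma gondii numbers, read through their beta-galactosidase reporter with a colour substrate. Concentration: 10 µM. The record gives no direction; the compounds picked for IC50 retests had high values, so higher reads as fewer parasites. About 67,000 compounds were tested under these conditions; 0.38% (about 260) showed 50% or more at least once.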
B: 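Cell assay of Leishmania donovani living inside macrophages; the read-out is not stated. Compounds at 30 µM. Direction is inferred from retests: higher values go with stronger inhibition. Size under these conditions: about 69,000 compounds, about 1,000 of them at 50% or above in at least one test.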

Values are the deposited “Percent Effect”, in %.
How 0% and 100% were set is not recorded. Most values in the screen are low, and negative values occur.
The compounds are a random part of those screened.
Two or more numbers in one place are separate tests of the same structure; such repeats can differ widely.
A dash means the value is not listed here; it may have been measured.

Compound,A,B
CCn1cnnc1C1CCN(C(=O)c2cnc3ccccc3n2)CC1,-0.6536%,16.05%
CCn1ccnc1CN1CCN(Cc2ccccn2)CC1C (stereo unspecified),-21.29%,36.48%
O=S(=O)(N(Cc1ccccn1)C1CC1)N1CCCC1c1ccco1 (stereo unspecified),2.262%,14.46%
O=C(Cn1ccc2ccccc21)Nc1cc(N2CCCC2)ncn1,9.009%,11.37% & 21.69%
CCN(C(=O)c1nc2c(s1)CCCN2Cc1ccccc1)C(C)C,-3.313%,2.027%
NC1CCCCN(Cc2ccccc2CS(=O)(=O)c2ccccc2)C1 (stereo unspecified),-,64.11%
CCNC(=O)CN(CC)C(=O)c1csc(Cc2ccccc2F)n1,3.141%,-0.1791%
CN1CC(=O)N(c2ccsc2)CC12CCN(Cc1nccn1C)C2 (stereo unspecified),-5.643%,5.998% & 13.37%
CNc1cc2c(nn1)CCN(C(=O)c1ccc(-n3cccn3)nc1)C2,0.8574%,-89.85%
Cc1ncsc1C(=O)N(Cc1cccnc1)C1CC1,-4.436%,6.061%
O=C(O)C(F)(F)F.O=C(O)C(F)(F)F.O=C(O)C(F)(F)F.[H][C@@]12CN(CCOC)C[C@]1([H])[C@@H](OC)CCN2Cc1ccncc1,10.95%,29.82%
O=C1CCc2cc(S(=O)(=O)NC(=O)c3ccc4c(c3)CCO4)ccc2N1,8.194%,25.18%
O=C(c1ccc(O)c(Cl)c1)N1CCN(c2nccs2)CC1,11.88%,64.57%
Cc1nsc(C(=O)N2CCc3ccccc3C2)n1,4.767%,2.363%
CC(=O)NCC(=O)N(CCc1ccccc1)C1CCOC1 (stereo unspecified),-0.4419%,13.61%
Cc1nc2c(c(=O)n1C)CN(C(=O)C1CCCN(CC(N)=O)C1)C2 (stereo unspecified),8.686%,-10.67%
O=C(NCCN1CCOCC1)NCC(O)c1cccc(F)c1 (stereo unspecified),-0.2872%,13.31%
Cc1nc2nc(C)c3c(=O)n(-c4ccn[nH]4)ccc3n2n1,-7.101%,31.56%
O=C(c1ccc2c(c1)[nH]c(=O)n2C1CCCC1)N1CCCSCC1,-1.871%,27.13%
CCCc1nc2c(c(C)c(C)n2Cc2cccnc2)c(N)c1CC,33.67%,64.41%
CN1CCN2CCN(Cc3cnc(NCc4ccccc4)nc3)CC2C1 (stereo unspecified),-13.57%,11.16%
CSCc1noc(CNC(=O)C2CCN(C(C)C)CC2)n1,12.07%,10.45%
CC(=O)N1CCC(Oc2ccc(Cl)cn2)CC1,-0.7663%,-8.878%
[H][C@@]12CN(C)CCO[C@]1([H])CN(S(=O)(=O)c1ccc(OC)cc1)C2,16.82%,8.592%
Cc1ccsc1[C@@H]1CCN(C(=O)Cc2ccc(O)cc2)C[C@H]1O,6.088%,-18.75%
O=C(NCc1cccs1)c1[nH]nc2c1CS(=O)(=O)CC2,9.988%,-12.92%
Cn1ccnc1CN1CCCN(C(=O)c2ccc3c(c2)COC3)CC1,-10.73%,29.7%
CC(C)(C)n1cc(C(=O)NCCCn2ccnc2)c2cccnc21,-5.518%,23.53%
Cc1nc(CN2CCC23CCN(Cc2ccco2)CC3)cs1,-12.64%,53.61%
Cc1noc(C)c1CNS(=O)(=O)N(C)Cc1ccc(Cl)cc1,-14%,-12.67%
CC(C)COCCCNC(=O)c1cccnc1N1CCOCC1,-22.87%,18.43%
Cc1cccc(C)c1OCCNC(=O)C[S+]([O-])C1CCCC1 (stereo unspecified),-7.36%,13.91%
Cc1ccccc1CC(=O)NCc1cnc(CC2CCN(C)CC2)cn1,-17.76%,17.79%
COc1cc(NC(=O)c2ccc(C)c(F)c2)c(C(=O)N(C)C)cc1OC,4.186%,10.41%
[H][C@@]12OCCN(Cc3ccoc3)[C@@]1([H])CC[C@H]2OCc1cccc(C)n1,-24.23%,41.71%
CC1(C)CN(C(=O)CCc2nc(-c3ccncc3)no2)CCO1,6.806%,9.885%
Cc1nc(NC(=O)NCCCN2CCC(C(N)=O)CC2)sc1C,-3.384%,2.186%
Cc1n[nH]c(-c2ccc(NC(=O)C(C)(C)N3CCN(C)CC3)cc2)n1,0.1894%,13.24%
COc1ccccc1C1(CNc2nnc(C)c(C)c2C#N)CCCC1,-6.953%,49.84%
COc1nc2c(cc1C(=O)N(C)Cc1[nH]nc3c1CCC3)CCC2,0.194%,-2.326%
[H][C@@]12CCN[C@]1([H])CN(S(=O)(=O)c1ccccc1)C2,-15.18%,1.833%
CC(=O)c1cccc(NC(=O)CN2CCCCC2C)c1 (stereo unspecified),11.84%,-10.45%
Cc1nnc(CN(CCc2ccccc2)C2CCN(C)CC2)s1,16.45%,1.604%
CN(C(=O)c1cccnc1)C1CCCN(CCc2ccccc2)C1 (stereo unspecified),7.594%,-93.94%
Cc1noc(C(C)Nc2ccc3oc(C(C)C)nc3c2)n1 (stereo unspecified),15.76%,-19.09%
Cc1noc(C)c1CCCNC(=O)C1CCCN(C(=O)C2CC2)C1 (stereo unspecified),8.43%,17.01%
O=C(c1ccccc1)N1CCCC(Nc2ccc(F)cc2)C1 (stereo unspecified),-1.298%,-5.71%
Cc1cc(C(=O)O)cc(S(=O)(=O)Nc2ccc3c(c2)OCCCO3)c1C,21.91%,18.46%
O=C(NCC1CCCCC1)NC1CCCc2c1cnn2CCO (stereo unspecified),11.74%,5.086%
CC(=O)NCCC(=O)Nc1sccc1C(=O)C(C)(C)C,19.98%,11.36%
CC(Cn1cccn1)NC(=O)NCc1cccnc1OC1CCCC1 (stereo unspecified),-5.672%,26.03%
Cc1ncoc1C(=O)N1CCCC(C(=O)c2cccc(OC(C)C)c2)C1 (stereo unspecified),2.132%,-17.51%
COc1ccc2cnn(CC(=O)NC3CCCCC3)c(=O)c2c1OC,-7.49%,14.43%
CC(C)c1cc2c(O)nc(CSCC(=O)O)nc2s1,-5.021%,10.94%
Cc1nn(C)c2nc(N(CCOc3ccccc3)CC3CCCO3)sc12 (stereo unspecified),5.11%,31.81%
COc1cccc(-c2n[nH]cc2-c2nc(CN3CCCC3)no2)c1,-4.841%,16.48%
N#Cc1ccc(C(=O)N(Cc2ccncc2)C2CC2)cc1,22.51%,37.78%
CCC(C)NC(=O)CCNC(=O)Nc1ccc(-n2cncn2)c(F)c1 (stereo unspecified),-8.991%,5.122%
CCN(c1ccc(C(=O)N2CCCC(C)C2)cc1)S(=O)(=O)CC (stereo unspecified),-8.782%,-10.64%
CCO[C@H]1CN(C)C[C@@H]1NC(=O)c1cc(C)nc2c(C)c(C)ccc12,-6.922%,22.1%
O=C(O)C(F)(F)F.[H][C@@]12CCCO[C@]1([H])[C@H](N(C)Cc1ccco1)CN(C(=O)COC)C2,15.53%,10.17%
COC(=O)[C@@H](NC(=O)c1snnc1-c1ccc(OC)cc1)C(C)C,10.74%,11.34%
CC1(C(=O)NC2CCCC2)CCCN(c2ncccn2)C1 (stereo unspecified),9.714%,2.815%
Cc1nccn1Cc1nnc(C2CCCN(c3ncccn3)C2)n1C (stereo unspecified),-13.39%,12.02%
Cc1ccccc1C(=O)Nc1ccc([C@H]2OCC(=O)N(C)[C@@H]2CO)cc1,9.518%,29.14%
COc1ccc(S(=O)(=O)NCC(C)(O)c2cccs2)cc1Cl (stereo unspecified),0.2817%,9.491%
CSc1ccsc1C(=O)NS(=O)(=O)c1cccc(C#N)c1,16.82%,7.585%
O=C(O)C(F)(F)F.[H][C@@]12CCN(Cc3ccoc3)C[C@]1([H])OCCN(Cc1cccc(F)c1)C2=O,-0.479%,20.28%
[H][C@]12CCC[C@@]1(COCc1cccc(C)n1)CN(C(=O)Cc1ccco1)C2,-42.42%,43.88%
Cc1nnc(CN(Cc2cccc(Br)c2)C2CC2)o1,2.065%,-5.469%

Repeated from the top, 4 entries:

| Compound | A | B |
|---|---|---|
| `CCn1cnnc1C1CCN(C(=O)c2cnc3ccccc3n2)CC1` | -0.6536% | 16.05% |
| `CCn1ccnc1CN1CCN(Cc2ccccn2)CC1C` (stereo unspecified) | -21.29% | 36.48% |
| `O=S(=O)(N(Cc1ccccn1)C1CC1)N1CCCC1c1ccco1` (stereo unspecified) | 2.262% | 14.46% |
| `O=C(Cn1ccc2ccccc21)Nc1cc(N2CCCC2)ncn1` | 9.009% | 11.37% & 21.69% |

Measurements from “University of Dundee, Small-Polar-MMV Screening Library” (2021), ChEMBL document CHEMBL3988442.